Test results as given in paper PMC3931756.
Results are given in words; binding and its absence hold for the method and conditions named. Binding seen in cells or lysates may run through a third protein. Some entries that bind do so weakly or less than the wild type. Where a sequence is shown, tags or fusion partners need not be part of it. Blank lines part the entries; values can stand above or below the binder they belong to.

Experiments:
[1] = target: T1, Inhibitor of DNA binding 2 (ID2), 6x-myc-tagged (UniProt P41136); assay: co-IP; JAR cells co-transfected with 3xFLAG-Asb4 and 6xmyc-Id2, low dose of MG-132; lysis in 50 mM Tris pH 7.5, 150 mM NaCl, 1 mM EDTA, 1 mM EGTA, 0.5% NP-40; cross-linked with 2 mM DSP 2 h at 4°C; pre-cleared with IgG and Protein A/G beads; precipitated with anti-c-myc or anti-FLAG affinity gel, blotted for FLAG or myc
T1 sequence: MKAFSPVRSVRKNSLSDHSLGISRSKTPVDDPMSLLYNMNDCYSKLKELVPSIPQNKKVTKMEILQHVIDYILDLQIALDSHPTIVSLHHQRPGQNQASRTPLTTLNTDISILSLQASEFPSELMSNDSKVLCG

[2] = target: T2, Inhibitor of DNA binding 2 (ID2), myc-tagged, transfected in 2H-11 cells (UniProt P41136); assay: co-IP; 2H-11 cells stably expressing FLAG-tagged Asb4, transfected with increasing amounts of myc-tagged Id2, low dose of MG-132; lysed and pre-cleared as for JAR cells; precipitated with anti-myc agarose beads, blotted for FLAG
T2 sequence: T1 sequence

[3] = target: T3, Ankyrin repeat, SOCS box-containing 4 (ASB4), 3xFLAG-tagged (UniProt Q9WV71); assay: co-IP; JAR cells co-transfected with 3xFLAG-Asb4 and 6xmyc-Id2, low dose of MG-132; lysis in 50 mM Tris pH 7.5, 150 mM NaCl, 1 mM EDTA, 1 mM EGTA, 0.5% NP-40; cross-linked with 2 mM DSP 2 h at 4°C; pre-cleared with IgG and Protein A/G beads; precipitated with anti-c-myc or anti-FLAG affinity gel, blotted for FLAG or myc
T3 sequence: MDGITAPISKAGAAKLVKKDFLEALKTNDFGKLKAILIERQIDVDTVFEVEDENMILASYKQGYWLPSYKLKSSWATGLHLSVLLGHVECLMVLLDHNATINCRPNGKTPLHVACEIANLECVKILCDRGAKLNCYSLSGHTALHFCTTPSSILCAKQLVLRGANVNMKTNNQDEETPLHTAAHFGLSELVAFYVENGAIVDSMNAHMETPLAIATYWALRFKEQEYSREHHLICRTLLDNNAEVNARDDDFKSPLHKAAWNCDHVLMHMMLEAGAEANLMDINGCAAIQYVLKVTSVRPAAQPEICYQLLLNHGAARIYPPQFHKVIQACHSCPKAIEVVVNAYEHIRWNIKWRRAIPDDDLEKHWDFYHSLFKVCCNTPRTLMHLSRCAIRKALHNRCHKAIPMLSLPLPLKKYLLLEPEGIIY

- binding [1]: binds
B1: Ankyrin repeat, SOCS box-containing 4 (ASB4), 3xFLAG-tagged (enzyme, UniProt Q9WV71 1-426)
chain: T3 sequence

- binding [2]: binds
B2: Ankyrin repeat, SOCS box-containing 4 (ASB4), FLAG-tagged, stably expressed in 2H-11 cells (enzyme, UniProt Q9WV71 1-426)
chain: T3 sequence

- binding [3]: binds
B3: Inhibitor of DNA binding 2 (ID2), 6x-myc-tagged (protein, UniProt P41136 1-134)
chain: T1 sequence
